According to patent US4178371A, “Tetrapeptide derivatives” (Reckitt & Colman Products Limited, priority 1977, dated 1979):

Test system: rat
Test: rat tail flick test (R.T.F.), intravenous administration
Format: in vivo
Conditions: hot water 55° as nociceptive stimulus, i.v.
Experimental: The test used for the detection of their agonist activity at opiate receptor sites is that employing the transmurally stimulates guinea pig ileum preparation described in Kosterlitz et al., Brit. J. Pharmacol, and Chemotherapy 33. 266-276 (1968). […] Exp. Ther. 125, 237 (1959) and by the rat tail flick test (intravenous administration) according to Jansen et al., Arzneim Forsch. 13, 266 (1963).
In the rat tail flick test hot water (maintained at 55°±1°C.) is used as the nociceptive stimulus.
The following are data obtained with compounds of the invention when tested by the guinea pig ileum (G.P.I., activity compared with Met enkephalin), Hendershot et al (H & F) and rat tail pressure (R.T.F) tests.

CN1CC[C@]23c4c5ccc(O)c4O[C@H]2[C@@H](O)C=C[C@H]3[C@H]1C5 [Morphine, reference compound]
ED50: 2.2 mg/kg
